Results are given in words; binding and its absence hold for the method and conditions named. Some binding calls cover weakened binding; strength is not graded here. Sequences can lack the tags named with a protein.
Target: GST-fused DYNLL1 (human (from the printed UniProt accession)) (UniProt P63167)
Assay: ELISA; phage-ELISA, GST-fused DYNLL1 immobilised, peptide displayed on phage without Leu-zipper; data not shown; only the target purified

The chains behind the UniProt entries cited, without tags or fusion partners.
UniProt P63167: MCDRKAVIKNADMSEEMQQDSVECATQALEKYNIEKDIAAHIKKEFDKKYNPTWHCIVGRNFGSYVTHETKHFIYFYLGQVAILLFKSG

binding	Binder
binds weakly	EDKATQTL [Flag-tagged Bmf peptide (EDKATQTL) displayed monovalently on the M13 p3 coat protein]
binds weakly	EDKATQTL [Flag-tagged Bmf peptide (EDKATQTL) displayed multivalently on the M13 p8 coat protein]
